{
  "source": "patent US12697319B2",
  "about": "“Methods for inhibiting the progression of neurodegenerative diseases” (BioJiva LLC, priority 2021, dated 2026)",
  "assay": "Concentration of D2-LA and D2-AA in RBCs of the same single patient (Example 1)",
  "settings": "3 and 6 months taken together",
  "description": "This example determines the relative concentration of D2-AA in the CSF and in RBCs in order to determine a correlation between these two concentrations. Specifically, a patient was continuously provided with a daily dose of 9 grams of D2-LA ethyl ester (which is 8.64 grams of active discounting for impurities and removal of the ethyl ester) over about a six-month period. […] In all cases, the D2-AA was obtained by deacylation of the ethyl ester of linoleic acid in the gastrointestinal tract followed by conversion of D2-LA in vivo to D2-AA.",
  "note": "At least one structure is not confirmed: it was looked up by name or label, or the drawing left a doubt.",
  "data": [
    {"smiles": "[2H]C([2H])(/C=C\\CCCCC)/C=C\\CCCCCCCC(=O)O", "note": "[D2-LA, 11,11-D2-Linoleic Acid]", "values": [
      {"measurement": "Ratio of D2-LA to D2-AA in RBCs at 3 and 6 months (combined)", "value": "2.5:1+/−0.4"}
    ]}
  ]
}
